Results: US20260256792A1, “TREATMENT OF CHRONIC SPONTANEOUS URTICARIA BY ADMINISTERING (R)-2-[3-[4-AMINO-3-(2-FLUORO-4-PHENOXY-PHENYL)PYRAZOLO[3,4-D]PYRIMIDIN-1-YL]PIPERIDINE-1-CARBONYL]-4-METHYL-4-[4-(OXETAN-3-YL)PIPERAZIN-1-YL]PENT-2-ENENITRILE” (priority 2023, published 2026)
This continues a long series; more values of the same kind are listed elsewhere.

Tested on: moderate-to-severe chronic spontaneous urticaria (CSU)
Experiment: Phase 2 CSU study: itch severity score over 7 days (ISS7)
Format: in vivo, human
Details: Omalizumab-Naïve
Text: The study comprises a 12 week, randomized, double-blind, placebo-controlled, multi-center, dose-ranging efficacy and safety phase, followed by a 40 week open label extension (OLE) phase (see FIG. 1). The study consists of three phases and an optional OLE phase. […] Clinically, CSU is characterized by the spontaneous and recurrent appearance of pruritic hives. The proposed primary endpoints were the UAS7 at Week 12 in EU and EU reference countries and the ISS7 in the US. Regardless of where a participant was from, all assessments were the same. The UAS7 score is a composite score containing both the HSS7 and the ISS7. This allowed a global assessment of the two key components of urticaria: hives and itch. […] The UAS is a validated PRO measure. […] The daily UAS scores range from 0 to 6 point/day. […] Patients were to complete the UAS using the e-diary. […] The following secondary endpoints were to be analyzed using the same approach as for the primary endpoint: • Change from baseline in UAS7 at Week 4 • Change from baseline in UAS7 at Week 12 (for US and US reference countries) • Change from baseline in ISS7 at Week 12 (except US and US reference countries) • Change from baseline in HSS7 at Week 12

[1] = outlier removed, 400 mg QPM, Week 6
[2] = outlier removed, 400 mg QPM, Week 7
[3] = outlier removed, 400 mg QPM, Week 8
[4] = outlier removed, 400 mg QPM, Week 9
[5] = outlier removed, 400 mg QPM, Week 10
[6] = outlier removed, 400 mg QPM, Week 11
[7] = outlier removed, 400 mg QPM, Week 12
[8] = outlier removed, 400 mg TID, Week 1
[9] = outlier removed, 400 mg TID, Week 2
[10] = outlier removed, 400 mg TID, Week 3
[11] = outlier removed, 400 mg TID, Week 4
[12] = outlier removed, 400 mg TID, Week 5
[13] = outlier removed, 400 mg TID, Week 6
[14] = outlier removed, 400 mg TID, Week 7
[15] = outlier removed, 400 mg TID, Week 8
[16] = outlier removed, 400 mg TID, Week 9
[17] = outlier removed, 400 mg TID, Week 10
[18] = outlier removed, 400 mg TID, Week 11
[19] = outlier removed, 400 mg TID, Week 12

CC(C)(C=C(C#N)C(=O)N1CCC[C@@H](n2nc(-c3ccc(Oc4ccccc4)cc3F)c3c(N)ncnc32)C1)N1CCN(C2COC2)CC1 [rilzabrutinib, (R)-2-[3-[4-amino-3-(2-fluoro-4-phenoxy-phenyl)pyrazolo[3,4-d]pyrimidin-1-yl]piperidine-1-carbonyl]-4-methyl-4-[4-(oxetan-3-yl)piperazin-1-yl]pent-2-enenitrile] was tested, and the “ISS7 Change difference for rilzabrutinib vs. placebo LS Mean (95% CI)” value (shortened to “ISS7 Change difference … (95% CI)”) [1] was −1.29 (−3.88, 1.30), the “ISS7 Change from baseline LS Mean (SE)” value [1] was −6.13 (0.94) and the “ISS7 % Change difference for rilzabrutinib vs. placebo LS Mean (95% CI)” value (“ISS7 % Change difference … (95% CI)” below) [2] was −8.35 (−24.56, 7.86) %. For the same compound, the “ISS7 % Change from baseline LS Mean (SE)” value [2] was −38.17 (5.94) %, the “ISS7 Change difference … (95% CI)” value [2] was −1.09 (−3.58, 1.41) and the “ISS7 Change from baseline LS Mean (SE)” value [2] was −6.23 (0.91). The “ISS7 % Change difference … (95% CI)” value [3] was −5.99 (−22.96, 10.98) %, the “ISS7 % Change from baseline LS Mean (SE)” value [3] was −38.14 (6.20) % and the “ISS7 Change difference … (95% CI)” value [3] was −0.63 (−3.22, 1.96). The “ISS7 Change from baseline LS Mean (SE)” value [3] was −6.08 (0.95), the “ISS7 % Change difference … (95% CI)” value [4] was −7.36 (−24.20, 9.48) % and the “ISS7 % Change from baseline LS Mean (SE)” value [4] was −37.28 (6.13) %. For the same compound, the “ISS7 Change difference … (95% CI)” value [4] was −1.04 (−3.67, 1.58), the “ISS7 Change from baseline LS Mean (SE)” value [4] was −6.16 (0.95) and the “ISS7 % Change difference … (95% CI)” value [5] was −3.99 (−21.57, 13.58) %. For the same compound, the “ISS7 % Change from baseline LS Mean (SE)” value [5] was −39.06 (6.40) %, the “ISS7 Change difference … (95% CI)” value [5] was −0.75 (−3.45, 1.96) and the “ISS7 Change from baseline LS Mean (SE)” value [5] was −6.41 (0.98). The “ISS7 % Change difference … (95% CI)” value [6] was −5.03 (−22.79, 12.72) %, the “ISS7 % Change from baseline LS Mean (SE)” value [6] was −36.51 (6.46) % and the “ISS7 Change difference … (95% CI)” value [6] was −0.51 (−3.21, 2.18). The “ISS7 Change from baseline LS Mean (SE)” value [6] was −5.84 (0.98), the “ISS7 % Change difference … (95% CI)” value [7] was 0.29 (−17.53, 18.11) % and the “ISS7 % Change from baseline LS Mean (SE)” value [7] was −34.35 (6.52) %. For the same compound, the “ISS7 Change difference … (95% CI)” value [7] was 0.42 (−2.33, 3.18), the “ISS7 Change from baseline LS Mean (SE)” value [7] was −5.29 (1.01) and the “ISS7 % Change difference … (95% CI)” value [8] was −27.54 (−46.26, −8.82) %. For the same compound, the “ISS7 % Change from baseline LS Mean (SE)” value [8] was −37.73 (5.76) %, the “ISS7 Change difference … (95% CI)” value [8] was −4.25 (−6.97, −1.53) and the “ISS7 Change from baseline LS Mean (SE)” value [8] was −6.21 (0.84). For the same compound, the “ISS7 % Change difference … (95% CI)” value [9] was −27.63 (−42.59, −12.68) %, the “ISS7 % Change from baseline LS Mean (SE)” value [9] was −46.27 (5.57) % and the “ISS7 Change difference … (95% CI)” value [9] was −4.29 (−6.52, −2.06). For the same compound, the “ISS7 Change from baseline LS Mean (SE)” value [9] was −7.53 (0.83), the “ISS7 % Change difference … (95% CI)” value [10] was −27.10 (−42.26, −11.94) % and the “ISS7 % Change from baseline LS Mean (SE)” value [10] was −47.94 (5.64) %. For the same compound, the “ISS7 Change difference … (95% CI)” value [10] was −4.12 (−6.42, −1.83), the “ISS7 Change from baseline LS Mean (SE)” value [10] was −7.77 (0.85) and the “ISS7 % Change difference … (95% CI)” value [11] was −24.30 (−40.44, −8.16) %. For the same compound, the “ISS7 % Change from baseline LS Mean (SE)” value [11] was −47.66 (6.02) %, the “ISS7 Change from baseline LS Mean (SE)” value [11] was −7.78 (0.91) and the “ISS7 % Change difference … (95% CI)” value [12] was −19.54 (−35.11, −3.96) %. For the same compound, the “ISS7 % Change from baseline LS Mean (SE)” value [12] was −53.59 (5.78) %, the “ISS7 Change difference … (95% CI)” value [12] was −3.21 (−5.65, −0.77) and the “ISS7 Change from baseline LS Mean (SE)” value [12] was −8.85 (0.91). The “ISS7 % Change difference … (95% CI)” value [13] was −23.97 (−40.79, −7.15) %, the “ISS7 % Change from baseline LS Mean (SE)” value [13] was −52.19 (6.28) % and the “ISS7 Change from baseline LS Mean (SE)” value [13] was −8.61 (0.98). For the same compound, the “ISS7 % Change difference … (95% CI)” value [14] was −24.40 (−40.95, −7.85) %, the “ISS7 % Change from baseline LS Mean (SE)” value [14] was −54.22 (6.16) % and the “ISS7 Change difference … (95% CI)” value [14] was −3.69 (−6.24, −1.13). The “ISS7 Change from baseline LS Mean (SE)” value [14] was −8.83 (0.95), the “ISS7 % Change difference … (95% CI)” value [15] was −19.50 (−37.05, −1.95) % and the “ISS7 % Change from baseline LS Mean (SE)” value [15] was −51.64 (6.49) %. For the same compound, the “ISS7 Change difference … (95% CI)” value [15] was −2.89 (−5.57, −0.21), the “ISS7 Change from baseline LS Mean (SE)” value [15] was −8.34 (0.99) and the “ISS7 % Change difference … (95% CI)” value [16] was −23.53 (−40.91, −6.16) %. For the same compound, the “ISS7 % Change from baseline LS Mean (SE)” value [16] was −53.45 (6.52) %, the “ISS7 Change difference … (95% CI)” value [16] was −3.67 (−6.38, −0.96) and the “ISS7 Change from baseline LS Mean (SE)” value [16] was −8.79 (1.02). For the same compound, the “ISS7 % Change difference … (95% CI)” value [17] was −19.20 (−37.21, −1.20) %, the “ISS7 % Change from baseline LS Mean (SE)” value [17] was −54.26 (6.73) % and the “ISS7 Change difference … (95% CI)” value [17] was −3.21 (−5.98, −0.44). For the same compound, the “ISS7 Change from baseline LS Mean (SE)” value [17] was −8.88 (1.04), the “ISS7 % Change difference … (95% CI)” value [18] was −22.12 (−39.99, −4.26) % and the “ISS7 % Change from baseline LS Mean (SE)” value [18] was −53.60 (6.61) %. For the same compound, the “ISS7 Change difference … (95% CI)” value [18] was −3.49 (−6.21, −0.78), the “ISS7 Change from baseline LS Mean (SE)” value [18] was −8.82 (1.00) and the “ISS7 % Change difference … (95% CI)” value [19] was −23.57 (−41.96, −5.17) %. The “ISS7 % Change from baseline LS Mean (SE)” value [19] was −58.20 (6.85) %, the “ISS7 Change difference … (95% CI)” value [19] was −3.86 (−6.71, −1.02) and the “ISS7 Change from baseline LS Mean (SE)” value [19] was −9.57 (1.06). The “ISS7 % Change difference … (95% CI)” value (400 mg BID, Week 5) was −8.04 (−23.43, 7.34) %, the “ISS7 % Change from baseline LS Mean (SE)” value (400 mg BID, Week 5) was −42.17 (5.73) % and the “ISS7 Change difference … (95% CI)” value (400 mg BID, Week 5) was −0.92. The “ISS7 Change from baseline LS Mean (SE)” value (400 mg BID, Week 5) was −6.55 (0.91), the “ISS7 % Change difference … (95% CI)” value (400 mg BID, Week 6) was −13.63 (−30.25, 3.00) % and the “ISS7 % Change from baseline LS Mean (SE)” value (400 mg BID, Week 6) was −41.28 (6.23) %.
